# Values quoted from earlier work in patent US7795236B2, “Purine nucleoside derivative modified in 8-position and medical use thereof” (Kissei Pharmaceutical Co., Ltd., priority 2005, dated 2010).
# At least one compound was matched to its structure with a doubt left.
# Tested on: CNTs
# Conditions: CNT1, CNT2, CNT3; Non-patent References 9 and 11; cited from earlier work
smiles,measurement,value
"O=[N+]([O-])c1ccc(CSc2ncnc3c2ncn3C2OC(CO)C(O)C2O)cc1 (stereo not shown) [NBMPR, nitrobenzylthioinosine]",influence of NBMPR on CNTs,not influenced
